As usually defined, the AC50 is the concentration giving half of the maximal activity seen.

Among the data in PubChem BioAssay AID493014 (National Center for Advancing Translational Sciences (NCATS), 2011) are AC50 values, retold here.

SMILES strings stand for the structures. The list shows a part of the results. These are further read-outs of the screen, such as a control signal, another cell line or another target. No call is given for them. The list favours compounds with an active or inconclusive main result. Words in brackets tell the shape of the fitted curve; partial curves, single points and poor fits give uncertain potencies.

The nature of this test: qHTS Assay to Find Inhibitors of Chronic Active B-Cell Receptor Signaling. Particulars: ABC-DLBCL IkBa-CBG/CBR reporter, luminescence ratio (green luciferase fused to IkBa over red control in TMD8 lymphoma cells), 4 h. An outline of the steps: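 Doxycycline induced both beetle luciferases in TMD8 lymphoma cells; IKK-driven degradation limits the IkappaBalpha-fused green signal, while red luminescence normalises for cell number and nonspecific effects. Compounds tested up to 46 uM, 4 hrs.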

Setting [1] is: measured here: IkBa-CBG green luminescence.
Setting [2] is: measured here: CBR red luminescence, cell number.

Take `O=C1/C(=C/c2ccc(F)c(F)c2)CSc2sccc21`: the AC50 under setting [1] is 32.6 µM [rising, partial curve, poor fit].

On to `COc1ccc(-c2cc(=O)c3cc(O)ccc3o2)cc1`, for which the AC50 under setting [2] is 10 µM [falling, single point]. On the same count and under the same terms, then `CCOC(=O)c1oc2cccc(O)c2c1C`, with 11.6 µM [falling, partial curve, poor fit]; and `CC(=O)N1CCN(Cc2nc3cc([N+](=O)[O-])ccc3n2C)CC1`, with 35.5 µM [falling, single point].

In the case of `NS(=O)(=O)c1cccnc1Nc1ccc(Cl)c(Cl)c1`, under setting [2], the AC50 is 1.3 µM [rising, partial curve]. Same read-out and setting: then `CCc1nnc(NC(=O)CCN2C(=O)CCC2=O)s1`, with 0.1 µM [rising, full curve, poor fit]; and `CCOc1ccccc1C(=O)N/N=C/c1cccc2cccnc12`, with 3.55 µM [falling, full curve]. On to `OCCC1CN(Cc2cc3c(cc2Cl)OCO3)CCN1C1CCCCC1` (stereo unspecified), for which, under setting [2], the AC50 was 2.82 µM [falling, partial curve, poor fit]. The same measure, in the same setting: the result for `COc1ccc(NC(=O)CN2CCN(c3ccc(F)cc3)CC2)cc1` reads 35.5 µM [falling, single point]; that for `O=C(CN1C(=O)c2cccnc2Oc2ccc(Cl)cc21)NC1CCCCC1`, 1.58 µM [rising, partial curve, poor fit]; that for `CCCCNc1nc2c(-c3ccccc3)nnn2c2ccccc12`, 10 µM [falling, partial curve, poor fit].

Take `O=C(c1ccccc1)c1ccc(CN2C(=O)c3ccccc3C2=O)o1`: the AC50 under setting [2] was 14.6 µM [rising, partial curve, poor fit]. Same read-out and setting: the result for `CC(=O)Nc1ccc(OC(F)(F)Cl)cc1` reads 15.8 µM [rising, single point].

`Cc1ccc(Nc2nc3nonc3[nH]c2=O)cc1Cl`: the AC50 under setting [2] is 25.1 µM [falling, single point]. In the case of `Cc1ccc2c(c1)c1c3n2CCN(CC#N)C3CCC1` (stereo unspecified), the AC50 under setting [2] was 2.24 µM [rising, full curve]. Regarding `N#Cc1c(N)c(C(=O)c2ccccc2)n2c1CCC2`, under setting [2], the AC50 is 32.6 µM [rising, single point]. The same measure, in the same setting: the result for `Cc1ccc(-n2ncc3c(NCC(C)C)ncnc32)c(C)c1` reads 7.08 µM [falling, partial curve, poor fit]. For `COc1c(Br)cc(Br)cc1/C=N/NC(=O)c1cccnc1`, the AC50 runs as follows: under setting [2], 8.91 µM [rising, partial curve, poor fit]; under setting [1], 28.2 µM [falling, partial curve, poor fit]. With `CNC(=O)c1c(NC(NC(=O)c2ccco2)C(=O)c2ccc(Cl)cc2)sc2c1CCCC2` (stereo unspecified), the AC50 under setting [2] was 28.2 µM [falling, single point].

Take `O=c1[nH]c(O)c(C=Nc2ccc(Cl)cc2Cl)c(=O)[nH]1`: the AC50 under setting [2] was 0.282 µM [rising, full curve, poor fit]. Same read-out and setting: the result for `O=C(NCC(=O)N1CCc2ccccc2C1)c1ccccc1Cl` reads 15.8 µM [falling, partial curve, poor fit]; that for `Cc1c(C(=O)NC(=S)NCc2cccnc2)oc2ccccc12`, 5.01 µM [rising, partial curve, poor fit]; that for `COc1ccc(C(=O)Nc2ncc(C)s2)cc1S(=O)(=O)N1CCCC1`, 4.47 µM [falling, partial curve, poor fit].

Regarding `O=C(NCc1ccccc1F)C1CCCN1C(=O)Nc1ccc(Cl)cc1` (stereo unspecified), the AC50 under setting [2] was 3.55 µM [falling, single point]. With `Brc1ccccc1C1=Nn2c(nnc2-c2ccccc2)SC1`, the AC50 under setting [2] was 22.4 µM [falling, single point].

For `C=COC(=O)c1sc2nc(C)cc(C)c2c1N`, under setting [2], the AC50 is 2.51 µM [falling, partial curve, poor fit]. On the same count and under the same terms, then `C/C(=N\Nc1nc2ccccc2[nH]1)c1ccc2c(c1)OCO2`, with 12.6 µM [falling, single point]; and `CCN(CC)C(=O)OCc1c(-c2ccccc2)ncc2ccccc12`, with 29.1 µM [rising, single point]; and `O=C(Nc1cccc2ncccc12)c1ccc([N+](=O)[O-])o1`, with 10 µM [falling, partial curve]. Regarding `Cc1cc(O)ccc1Nc1nc(-c2cccnc2)cs1`, the AC50 under setting [1] is 10 µM [falling, partial curve, poor fit].

As for `COc1ccc(N(CC(=O)Nc2nc3ccc(C)cc3s2)S(=O)(=O)c2c(C)nn(C)c2C)cc1`, the AC50 under setting [2] was 1.03 µM [falling, full curve]. The same measure, in the same setting: then `CC1=NNC(=O)C1CCC(=O)N/N=C/c1ccc(Cl)cc1` (stereo unspecified), with 11.2 µM [falling, partial curve]. Take `CCCCN1C(=O)C(=O)c2cc(Cl)ccc21`: under setting [1], the AC50 was 16.4 µM [falling, single point]. Consider `O=C(CSc1nnc(-c2cccs2)n1-c1ccccc1)N1CCN(C(=O)c2ccco2)CC1`, for which the AC50 under setting [2] is 25.1 µM [falling, single point]. With `COc1ccc(OC)c(/C=C/C(=O)N(C)CC(=O)Nc2ccc(N3CCOCC3)cc2)c1`, the AC50 under setting [2] was 16.4 µM [rising, partial curve, poor fit]. Same read-out and setting: then `Cc1c(O)ccc(/C(Cc2ccc3ccccc3n2)=N\O)c1O`, with 15.8 µM [falling, partial curve, poor fit]; and `CCC(C)[C@H](NC(=O)Nc1ccc2c(c1)OCCO2)C(=O)OC` (stereo partly specified), with 15.8 µM [rising, single point]; and `COc1ccc([C@@H]2CC(=O)c3c(O)cc(O[C@@H]4O[C@H](CO[C@@H]5O[C@@H](C)[C@H](O)[C@@H](O)[C@H]5O)[C@@H](O)[C@H](O)[C@H]4O)cc3O2)cc1O`, with 8.91 µM [rising, partial curve, poor fit].

Regarding `COc1cc(C)c(Br)cc1S(=O)(=O)N1CCOCC1`, under setting [2], the half-maximal activity concentration (AC50) was 16.4 µM [rising, single point]. Take `O=C(NC1CCCCCCC1)NC1CCCCC1`: the AC50 under setting [2] is 35.5 µM [falling, single point]. As to `BrC(=C\c1ccccc1)/C=N/N1CCN(c2ccccn2)CC1`, the AC50 under setting [2] was 0.731 µM [rising, full curve, poor fit]. On the same count and under the same terms, the result for `O=C(C(=O)N1CCc2ccccc2C1)c1c[nH]c2ccccc12` reads 0.708 µM [rising, partial curve, poor fit]; that for `CC(=O)N(CCC(Cc1ccccc1)c1ccco1)Cc1ccco1` (stereo unspecified), 3.55 µM [falling, partial curve, poor fit].

As for `Clc1cccc(N2CCN(Cc3nnc(-c4ccccc4)o3)CC2)c1`, under setting [2], the AC50 is 6.31 µM [falling, partial curve, poor fit]. As to `Cc1ccccc1NC(=O)c1ccc(NC(=O)C2CC(=O)OC23CCCCC3)cc1` (stereo unspecified), the AC50 under setting [2] was 20 µM [falling, single point].

Turning to `COc1ccc(C(=O)NCCNc2nc3c(C)cccc3cc2C#N)cc1OC`, under setting [2], the AC50 was 1.12 µM [rising, full curve]. In the case of `CCOC(=O)c1cnc2ccc(C)cc2c1Nc1ccc(N2CCOCC2)cc1`, the AC50 under setting [2] is 18.4 µM [falling, partial curve, poor fit]. Same read-out and setting: the result for `O=C(OCC(=O)N1CCOCC1)c1ccc2ccccc2c1O` reads 6.51 µM [falling, partial curve]. With `CCOC(=O)C1CCN(C(=O)c2cc3c(=O)n4cccc(C)c4nc3s2)CC1`, under setting [2], the AC50 is 3.16 µM [falling, partial curve]. The same measure, in the same setting: then `COc1ccc(NC(=O)CN(C)C(C)C(=O)N2CCCCC2)cc1` (stereo unspecified), with 0.146 µM [rising, full curve, poor fit]; and `CCCOc1cccc(-c2nnc(NC(=O)c3ccco3)s2)c1`, with 6.31 µM [falling, partial curve, poor fit]; and `O=C1/C(=C/c2ccco2)SC(=S)N1C1CCS(=O)(=O)C1` (stereo unspecified), with 35.5 µM [falling, single point].

Regarding `Cc1cccc(-c2nn(-c3ccccc3)cc2C(=O)NCC(c2cccs2)N2CCOCC2)c1` (stereo unspecified), the AC50 under setting [2] is 0.103 µM [rising, full curve, poor fit]. For the compound `CCOC(=O)[C@H]1[C@H]2COc3ccc(Cl)cc3[C@@H]2N2C(=O)c3cc(OC)ccc3NC(=O)[C@@]12C`, the AC50 was 20.6 µM [falling, partial curve] under setting [2] and 16.4 µM [rising, partial curve, poor fit] under setting [1]. On to `CCn1c(C)cc(C=C2C(=O)c3ccccc3C2=O)c1C`, for which the AC50 under setting [2] was 35.5 µM [falling, single point]. Regarding `O=C(CCCC(=O)OCC(Cl)=C(Cl)Cl)Nc1cccc(F)c1`, under setting [2], the half-maximal activity concentration (AC50) was 11.2 µM [falling, single point]. On the same count and under the same terms, then `Cn1c(=O)c(C(=O)NNC(=O)c2cccc(Cl)c2)c(O)c2ccccc21`, with 1.58 µM [falling, full curve].

Regarding `O=C(NCc1ccccc1C(F)(F)F)C1CC(c2ccccc2[N+](=O)[O-])=NO1` (stereo unspecified), the AC50 under setting [2] is 2.82 µM [falling, single point]. For the compound `O/N=C/c1ccc(OCc2ccccc2)c(Cl)c1`, the AC50 under setting [2] was 2.06 µM [rising, full curve]. Turning to `C[C@]12CC[C@@H]3c4ccc(O)cc4CC[C@H]3[C@@H]1CC[C@@H]2OC(=O)CCC(=O)O`, the AC50 under setting [2] was 0.92 µM [rising, partial curve]. The same measure, in the same setting: the result for `COc1cc(/C=N/NC(=O)c2cc(O)cc(O)c2)ccc1OC(=O)c1ccccc1` reads 10 µM [falling, partial curve, poor fit]; that for `Cc1nn(CC(=O)NCCCc2ccccc2)c(=O)c2cccn12`, 35.5 µM [rising, single point]. Regarding `COc1ccc(-c2cc3nnc(-c4ccccc4)nc3s2)cc1`, the AC50 under setting [2] was 0.013 µM [falling, full curve, poor fit]. On the same count and under the same terms, then `CN(C(=O)c1cc2nc(-c3ccco3)cc(C(F)(F)F)n2n1)C1CCCCC1`, with 1.12 µM [falling, full curve, poor fit].
